Data as given in PubChem BioAssay AID1259254 (NCATS, 2017)

- Screen: 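Genome-wide screen for genes that prevent DNA re-replication in cancer cells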 (primary screen)
- Cells: human HCT116 colorectal cancer cells
- Reagents: single siRNA against human genes
- Time to read-out: 3 days
- Read-out: 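Nuclei stained with Hoechst and imaged; cell-cycle phase assigned by DNA content; G2 share scaled per plate, non-targeting siRNA 0%, GMNN siRNA 100%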
- Reading the numbers: G2 robust z-score and G2 cells, % of GMNN control: higher = more G2 cells, more excess DNA replication
- Hit rule: 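An siRNA counts as active if its G2 robust z-score lies at least 5 MADs above the screen median; here such calls match roughly 38% of GMNN control or more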
The whole screen tested about 59,000 reagents; shown is a part drawn at random. In the full data, about 1,550 (2.6%) are marked active. 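G2 share is only a proxy for re-replication; each gene was hit by three separate siRNAs, and active genes were retested.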 Further read-outs or replicates are left out here. Not stated in the record: the amount of reagent.

{"gene symbol": "MFRP (membrane frizzled-related protein)", "PubChem SID": "SID160751210", "G2 robust z-score": -0.844, "G2 cells, % of GMNN control": -2.97, "Outcome": "inactive"}
{"gene symbol": "MFRP (membrane frizzled-related protein)", "PubChem SID": "SID160751211", "G2 robust z-score": 6.26, "G2 cells, % of GMNN control": 47, "Outcome": "active"}
{"gene symbol": "MFRP (membrane frizzled-related protein)", "PubChem SID": "SID160751212", "G2 robust z-score": 2.38, "G2 cells, % of GMNN control": 19.7, "Outcome": "inactive"}
{"gene symbol": "MNDA (myeloid cell nuclear differentiation antigen)", "PubChem SID": "SID160777387", "G2 robust z-score": 0.43, "G2 cells, % of GMNN control": 6, "Outcome": "inactive"}
{"gene symbol": "MNDA (myeloid cell nuclear differentiation antigen)", "PubChem SID": "SID160777388", "G2 robust z-score": -0.493, "G2 cells, % of GMNN control": -0.505, "Outcome": "inactive"}
{"gene symbol": "MNDA (myeloid cell nuclear differentiation antigen)", "PubChem SID": "SID160777389", "G2 robust z-score": 0.566, "G2 cells, % of GMNN control": 6.95, "Outcome": "inactive"}
{"gene symbol": "ATP13A5 (ATPase 13A5)", "PubChem SID": "SID160764826", "G2 robust z-score": -0.398, "G2 cells, % of GMNN control": 0.171, "Outcome": "inactive"}
{"gene symbol": "ATP13A5 (ATPase 13A5)", "PubChem SID": "SID160764827", "G2 robust z-score": 1.08, "G2 cells, % of GMNN control": 10.6, "Outcome": "inactive"}
{"gene symbol": "ATP13A5 (ATPase 13A5)", "PubChem SID": "SID160764828", "G2 robust z-score": 0.967, "G2 cells, % of GMNN control": 9.77, "Outcome": "inactive"}
{"gene symbol": "ATG4B (autophagy related 4B cysteine peptidase)", "PubChem SID": "SID160735674", "G2 robust z-score": 3.01, "G2 cells, % of GMNN control": 24.2, "Outcome": "inactive"}
{"gene symbol": "ATG4B (autophagy related 4B cysteine peptidase)", "PubChem SID": "SID160735675", "G2 robust z-score": 1.98, "G2 cells, % of GMNN control": 16.9, "Outcome": "inactive"}
{"gene symbol": "ATG4B (autophagy related 4B cysteine peptidase)", "PubChem SID": "SID160735676", "G2 robust z-score": 1.11, "G2 cells, % of GMNN control": 10.8, "Outcome": "inactive"}

2 neighbouring records already listed:
{"gene symbol": "ATG4B (autophagy related 4B cysteine peptidase)", "PubChem SID": "SID160735674", "G2 robust z-score": 3.01, "G2 cells, % of GMNN control": 24.2, "Outcome": "inactive"}
{"gene symbol": "ATG4B (autophagy related 4B cysteine peptidase)", "PubChem SID": "SID160735675", "G2 robust z-score": 1.98, "G2 cells, % of GMNN control": 16.9, "Outcome": "inactive"}

Next reagents follow:
{"gene symbol": "DCTN5 (dynactin subunit 5)", "PubChem SID": "SID160752339", "G2 robust z-score": 0.664, "G2 cells, % of GMNN control": 7.64, "Outcome": "inactive"}
{"gene symbol": "DCTN5 (dynactin subunit 5)", "PubChem SID": "SID160752340", "G2 robust z-score": 0.321, "G2 cells, % of GMNN control": 5.22, "Outcome": "inactive"}
{"gene symbol": "DCTN5 (dynactin subunit 5)", "PubChem SID": "SID160752341", "G2 robust z-score": -0.345, "G2 cells, % of GMNN control": 0.543, "Outcome": "inactive"}
{"gene symbol": "GRAP2 (GRB2 related adaptor protein 2)", "PubChem SID": "SID160722126", "G2 robust z-score": -0.501, "G2 cells, % of GMNN control": -0.557, "Outcome": "inactive"}
{"gene symbol": "GRAP2 (GRB2 related adaptor protein 2)", "PubChem SID": "SID160722127", "G2 robust z-score": -0.558, "G2 cells, % of GMNN control": -0.96, "Outcome": "inactive"}
{"gene symbol": "GRAP2 (GRB2 related adaptor protein 2)", "PubChem SID": "SID160722128", "G2 robust z-score": 7.9, "G2 cells, % of GMNN control": 58.6, "Outcome": "active"}
{"gene symbol": "CAPN3 (calpain 3)", "PubChem SID": "SID160736279", "G2 robust z-score": -1.26, "G2 cells, % of GMNN control": -5.87, "Outcome": "inactive"}
{"gene symbol": "CAPN3 (calpain 3)", "PubChem SID": "SID160736289", "G2 robust z-score": -1.88, "G2 cells, % of GMNN control": -10.2, "Outcome": "inactive"}
{"gene symbol": "CAPN3 (calpain 3)", "PubChem SID": "SID160736297", "G2 robust z-score": -0.841, "G2 cells, % of GMNN control": -2.95, "Outcome": "inactive"}
{"gene symbol": "SCN1A (sodium voltage-gated channel alpha subunit 1)", "PubChem SID": "SID160716383", "G2 robust z-score": -0.455, "G2 cells, % of GMNN control": -0.232, "Outcome": "inactive"}
{"gene symbol": "SCN1A (sodium voltage-gated channel alpha subunit 1)", "PubChem SID": "SID160716384", "G2 robust z-score": 0.675, "G2 cells, % of GMNN control": 7.71, "Outcome": "inactive"}
{"gene symbol": "SCN1A (sodium voltage-gated channel alpha subunit 1)", "PubChem SID": "SID160716385", "G2 robust z-score": 1.8, "G2 cells, % of GMNN control": 15.6, "Outcome": "inactive"}
